# Results as given in US10016372B2 (priority 2016, dated 2018).
# Test: Projected steady-state pharmacokinetics, once-weekly transdermal vs 10 mg once-daily oral donepezil
# Conditions: 10 mg oral once daily
smiles,measurement,value
"COc1cc2c(cc1OC)C(=O)C(CC1CCN(Cc3ccccc3)CC1)C2 (stereo not shown) [oral donepezil, donepezil]",Geometric mean Cmin,30.8 ng/mL
